Our source for the binding values is paper doi:10.1101/2025.02.03.636272.

Chains of the proteins cited; added tags and fusions are not shown.
UniProt Q92793: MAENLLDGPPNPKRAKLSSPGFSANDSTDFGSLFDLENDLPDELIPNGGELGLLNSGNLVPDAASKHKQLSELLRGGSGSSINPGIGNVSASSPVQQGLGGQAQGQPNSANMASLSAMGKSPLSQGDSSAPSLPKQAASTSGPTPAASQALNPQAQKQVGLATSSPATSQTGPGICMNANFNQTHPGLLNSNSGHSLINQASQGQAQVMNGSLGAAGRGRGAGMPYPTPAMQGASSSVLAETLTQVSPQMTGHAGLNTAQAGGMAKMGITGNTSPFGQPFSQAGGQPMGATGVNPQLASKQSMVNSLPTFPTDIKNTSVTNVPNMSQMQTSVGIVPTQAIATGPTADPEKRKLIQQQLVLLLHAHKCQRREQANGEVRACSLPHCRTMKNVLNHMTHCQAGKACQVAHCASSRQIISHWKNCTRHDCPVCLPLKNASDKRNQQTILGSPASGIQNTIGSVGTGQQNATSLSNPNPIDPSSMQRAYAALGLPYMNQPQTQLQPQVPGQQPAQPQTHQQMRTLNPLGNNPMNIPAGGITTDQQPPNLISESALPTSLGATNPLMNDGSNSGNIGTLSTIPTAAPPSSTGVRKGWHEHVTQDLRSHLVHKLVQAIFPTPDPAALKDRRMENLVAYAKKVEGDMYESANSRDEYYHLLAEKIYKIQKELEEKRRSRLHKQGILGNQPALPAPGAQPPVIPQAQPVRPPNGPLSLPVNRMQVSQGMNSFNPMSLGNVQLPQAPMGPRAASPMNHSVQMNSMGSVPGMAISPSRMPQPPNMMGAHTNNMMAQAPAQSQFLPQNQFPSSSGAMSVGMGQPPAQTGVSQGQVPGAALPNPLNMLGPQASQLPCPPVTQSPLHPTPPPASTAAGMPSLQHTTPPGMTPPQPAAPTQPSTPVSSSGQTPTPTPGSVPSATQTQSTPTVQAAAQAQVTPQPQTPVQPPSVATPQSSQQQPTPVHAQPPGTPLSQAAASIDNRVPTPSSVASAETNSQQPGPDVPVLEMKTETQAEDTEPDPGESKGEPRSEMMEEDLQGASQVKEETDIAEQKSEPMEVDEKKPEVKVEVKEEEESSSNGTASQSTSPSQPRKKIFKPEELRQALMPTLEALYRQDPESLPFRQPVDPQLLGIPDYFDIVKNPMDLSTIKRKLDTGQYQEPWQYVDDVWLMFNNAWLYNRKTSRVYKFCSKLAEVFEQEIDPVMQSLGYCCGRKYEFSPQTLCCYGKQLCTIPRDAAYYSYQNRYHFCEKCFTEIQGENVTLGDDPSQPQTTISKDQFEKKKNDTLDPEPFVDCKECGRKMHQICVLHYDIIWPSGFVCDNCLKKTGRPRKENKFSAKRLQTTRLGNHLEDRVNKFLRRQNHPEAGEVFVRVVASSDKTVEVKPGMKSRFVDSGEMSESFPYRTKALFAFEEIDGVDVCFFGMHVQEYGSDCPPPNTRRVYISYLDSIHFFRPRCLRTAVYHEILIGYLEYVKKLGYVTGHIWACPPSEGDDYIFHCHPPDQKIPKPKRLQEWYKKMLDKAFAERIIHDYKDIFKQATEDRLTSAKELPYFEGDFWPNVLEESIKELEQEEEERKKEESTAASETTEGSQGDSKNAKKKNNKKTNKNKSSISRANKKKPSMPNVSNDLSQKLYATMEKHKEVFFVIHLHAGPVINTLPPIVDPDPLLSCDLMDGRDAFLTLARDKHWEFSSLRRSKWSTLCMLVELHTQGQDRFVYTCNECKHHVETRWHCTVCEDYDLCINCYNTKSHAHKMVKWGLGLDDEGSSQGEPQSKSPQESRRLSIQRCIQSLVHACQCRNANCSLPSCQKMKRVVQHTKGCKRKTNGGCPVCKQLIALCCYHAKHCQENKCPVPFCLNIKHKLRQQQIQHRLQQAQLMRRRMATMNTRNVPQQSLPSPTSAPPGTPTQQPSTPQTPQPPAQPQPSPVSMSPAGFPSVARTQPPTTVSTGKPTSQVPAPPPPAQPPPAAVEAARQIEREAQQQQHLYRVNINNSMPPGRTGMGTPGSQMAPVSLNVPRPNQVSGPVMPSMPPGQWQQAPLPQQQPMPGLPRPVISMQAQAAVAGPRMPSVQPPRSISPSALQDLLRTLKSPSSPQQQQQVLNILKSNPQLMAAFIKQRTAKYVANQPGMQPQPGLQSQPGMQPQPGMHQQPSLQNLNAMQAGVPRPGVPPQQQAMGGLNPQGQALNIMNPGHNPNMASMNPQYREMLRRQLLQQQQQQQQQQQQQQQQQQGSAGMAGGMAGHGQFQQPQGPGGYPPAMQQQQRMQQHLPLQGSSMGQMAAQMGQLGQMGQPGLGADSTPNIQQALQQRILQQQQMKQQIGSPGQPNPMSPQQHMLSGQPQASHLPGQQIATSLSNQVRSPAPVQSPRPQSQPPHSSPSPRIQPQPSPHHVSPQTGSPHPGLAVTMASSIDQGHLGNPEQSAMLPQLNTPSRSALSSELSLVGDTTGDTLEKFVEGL
UniProt P51532: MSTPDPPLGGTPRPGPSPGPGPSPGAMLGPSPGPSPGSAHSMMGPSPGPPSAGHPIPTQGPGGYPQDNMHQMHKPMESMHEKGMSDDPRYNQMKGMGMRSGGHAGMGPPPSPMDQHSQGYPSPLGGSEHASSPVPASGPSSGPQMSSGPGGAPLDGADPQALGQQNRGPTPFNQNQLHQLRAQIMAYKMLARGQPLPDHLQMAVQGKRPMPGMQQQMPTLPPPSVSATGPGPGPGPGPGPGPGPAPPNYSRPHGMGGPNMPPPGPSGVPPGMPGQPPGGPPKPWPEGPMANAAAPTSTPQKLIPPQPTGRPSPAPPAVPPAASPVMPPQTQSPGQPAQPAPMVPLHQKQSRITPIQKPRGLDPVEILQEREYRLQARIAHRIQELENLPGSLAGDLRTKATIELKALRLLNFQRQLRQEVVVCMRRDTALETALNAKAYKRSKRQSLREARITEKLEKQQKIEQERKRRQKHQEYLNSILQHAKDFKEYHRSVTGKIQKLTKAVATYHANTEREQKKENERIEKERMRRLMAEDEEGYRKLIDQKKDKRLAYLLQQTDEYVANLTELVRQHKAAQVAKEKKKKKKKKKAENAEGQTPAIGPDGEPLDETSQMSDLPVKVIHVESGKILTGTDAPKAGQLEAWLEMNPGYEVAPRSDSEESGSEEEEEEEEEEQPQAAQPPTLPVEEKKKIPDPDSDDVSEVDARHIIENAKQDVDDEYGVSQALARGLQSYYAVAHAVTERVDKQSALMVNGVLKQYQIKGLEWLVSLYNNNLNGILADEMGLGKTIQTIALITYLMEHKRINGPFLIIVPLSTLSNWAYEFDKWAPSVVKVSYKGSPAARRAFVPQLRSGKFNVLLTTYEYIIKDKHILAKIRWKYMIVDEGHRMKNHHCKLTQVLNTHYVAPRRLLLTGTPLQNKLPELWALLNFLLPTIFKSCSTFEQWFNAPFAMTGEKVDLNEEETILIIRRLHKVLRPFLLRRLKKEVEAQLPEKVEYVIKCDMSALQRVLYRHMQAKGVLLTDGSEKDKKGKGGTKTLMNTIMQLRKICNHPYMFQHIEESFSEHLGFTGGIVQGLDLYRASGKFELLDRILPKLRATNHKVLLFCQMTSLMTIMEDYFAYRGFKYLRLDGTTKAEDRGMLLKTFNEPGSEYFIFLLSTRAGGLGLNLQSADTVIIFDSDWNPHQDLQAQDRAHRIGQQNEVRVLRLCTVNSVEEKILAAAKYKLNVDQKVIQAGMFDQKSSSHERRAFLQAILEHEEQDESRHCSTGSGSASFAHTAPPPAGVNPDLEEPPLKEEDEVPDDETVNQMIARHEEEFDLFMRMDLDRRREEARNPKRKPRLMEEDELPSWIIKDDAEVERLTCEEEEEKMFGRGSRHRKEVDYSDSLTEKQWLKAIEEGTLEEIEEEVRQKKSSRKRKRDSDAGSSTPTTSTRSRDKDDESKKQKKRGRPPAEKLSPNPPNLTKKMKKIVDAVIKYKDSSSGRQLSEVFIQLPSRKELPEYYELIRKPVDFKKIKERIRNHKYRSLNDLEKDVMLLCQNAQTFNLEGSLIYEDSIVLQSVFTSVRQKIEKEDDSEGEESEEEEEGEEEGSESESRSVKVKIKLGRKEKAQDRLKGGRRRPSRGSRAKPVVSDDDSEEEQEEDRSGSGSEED

The target of experiment [1] is T1, His-tagged VDR (VDRv1-His) (human) (UniProt P11473).
T1 sequence: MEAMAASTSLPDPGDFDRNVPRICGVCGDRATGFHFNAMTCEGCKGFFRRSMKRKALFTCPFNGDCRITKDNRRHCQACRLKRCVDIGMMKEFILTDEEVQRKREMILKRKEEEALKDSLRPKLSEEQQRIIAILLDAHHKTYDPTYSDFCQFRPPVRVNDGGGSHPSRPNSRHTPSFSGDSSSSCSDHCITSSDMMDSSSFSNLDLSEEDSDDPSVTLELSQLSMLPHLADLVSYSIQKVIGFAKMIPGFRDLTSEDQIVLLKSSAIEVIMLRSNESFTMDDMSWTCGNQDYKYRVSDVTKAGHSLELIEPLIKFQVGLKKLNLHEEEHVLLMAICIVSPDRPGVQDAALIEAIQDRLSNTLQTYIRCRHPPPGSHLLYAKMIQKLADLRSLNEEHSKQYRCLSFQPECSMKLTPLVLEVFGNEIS
The experiment in a line: affinity purification with mass spectrometry.

For experiment [2], the target named is T1, His-tagged VDR (VDRv1-His) (human). The experiment in a line: affinity purification with mass spectrometry. This is another data set of the same source.

Where two headings read alike, the source gives them in different places. No constants are given. Whether binding was seen depends on the method and setting. In cells and extracts the contact can be indirect. Here binding means that the protein was enriched with, or labelled near, the bait; the list need not be complete. Tags and fused reporters may be left off the sequences shown.

For the molecule “CREB binding protein (from UniProt Q92793 1-2442)”, in experiment [1], the binding result was “binds”.

On to “BRG1 transcriptional activator (from UniProt P51532 1-1647)”, for which the binding result in experiment [1] is given as “binds”.

As for “retinoid X receptor (RXR), endogenous (human (endogenous in HEK293))”, in experiment [1], the binding entry is on record as “binds”.

B1: NCoA-5 (protein, UniProt Q9HCD5 1-579)
chain: MNTAPSRPSPTRRDPYGFGDSRDSRRDRSPIRGSPRREPRDGRNGRDARDSRDIRDPRDLRDHRHSRDLRDHRDSRSVRDVRDVRDLRDFRDLRDSRDFRDQRDPMYDRYRDMRDSRDPMYRREGSYDRYLRMDDYCRRKDDSYFDRYRDSFDGRGPPGPESQSRAKERLKREERRREELYRQYFEEIQRRFDAERPVDCSVIVVNKQTKDYAESVGRKVRDLGMVVDLIFLNTEVSLSQALEDVSRGGSPFAIVITQQHQIHRSCTVNIMFGTPQEHRNMPQADAMVLVARNYERYKNECREKEREEIARQAAKMADEAILQERERGGPEEGVRGGHPPAIQSLINLLADNRYLTAEETDKIINYLRERKERLMRSSTDSLPGPISRQPLGATSGASLKTQPSSQPLQSGQVLPSATPTPSAPPTSQQELQAKILSLFNSGTVTANSSSASPSVAAGNTPNQNFSTAANSQPQQRSQASGNQPPSILGQGGSAQNMGPRPGAPSQGLFGQPSSRLAPASNMTSQRPVSSTGINFDNPSVQKALDTLIQSGPALSHLVSQTTAQMGQPQAPMGSYQRHY
As for B1, in experiment [2], the binding entry is “binds”.

B2: CCCCTC-Binding Factor (CTCF) repressor (protein, UniProt P49711 1-727)
chain: MEGDAVEAIVEESETFIKGKERKTYQRRREGGQEEDACHLPQNQTDGGEVVQDVNSSVQMVMMEQLDPTLLQMKTEVMEGTVAPEAEAAVDDTQIITLQVVNMEEQPINIGELQLVQVPVPVTVPVATTSVEELQGAYENEVSKEGLAESEPMICHTLPLPEGFQVVKVGANGEVETLEQGELPPQEDPSWQKDPDYQPPAKKTKKTKKSKLRYTEEGKDVDVSVYDFEEEQQEGLLSEVNAEKVVGNMKPPKPTKIKKKGVKKTFQCELCSYTCPRRSNLDRHMKSHTDERPHKCHLCGRAFRTVTLLRNHLNTHTGTRPHKCPDCDMAFVTSGELVRHRRYKHTHEKPFKCSMCDYASVEVSKLKRHIRSHTGERPFQCSLCSYASRDTYKLKRHMRTHSGEKPYECYICHARFTQSGTMKMHILQKHTENVAKFHCPHCDTVIARKSDLGVHLRKQHSYIEQGKKCRYCDAVFHERYALIQHQKSHKNEKRFKCDQCDYACRQERHMIMHKRTHTGEKPYACSHCDKTFRQKQLLDMHFKRYHDPNFVPAAFVCSKCGKTFTRRNTMARHADNCAGPDGVEGENGGETKKSKRGRKRKMRSKKEDSSDSENAEPDLDDNEDEEEPAVEIEPEPEPQPVTPAPPPAKKRRGRPPGRTNQPKQNQPTAIIQVEDQNTGAIENIIVEVKKEPDAEPAEGEEEEAQPAATDAPNGDLTPEMILSMMDR
Consider B2, for which the binding entry in experiment [2] is recorded as “binds”.
